{"source": "PubChem BioAssay AID504744, Drosophila RNAi Screening Center – 2011", "test": "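Identify dsRNAs that increase or decrease phospho-dAkt after insulin treatment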 (primary screen)", "system": "Drosophila Kc167 cells", "reagents": "long dsRNA against Drosophila genes, 250 ng dsRNA per well of a 384-well plate", "duration": "3 days of knock-down, then overnight serum-free starvation before stimulation", "conditions": "bovine insulin at 387 nM for 10 minutes after 12 h without serum", "measurement": "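Per-well phospho-dAkt level from an in-cell fluorescent antibody stain, divided by a DNA-dye signal; log2 residuals turned into z-scores that take cell number into account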", "call rule": "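Under insulin, a gene counts as a hit if the average z-score of two replicates lies above 2.5 or below -2.5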", "note": "The screen tested about 23,000 reagents; below is an unselected part of those that have a named target and a result. Of all reagents, 98 (0.43%) were called active. 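Only hit calls are given; the phospho-dAkt signals, z-scores and hit direction were not deposited.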 Reagents against one gene are numbered here. No sequences are given here."}
{"Target gene": "Jon65Aiii (GeneID 38683)", "reagent": 1, "Outcome": "inactive"}
{"Target gene": "ced-6 (GeneID 35971)", "reagent": 1, "Outcome": "inactive"}
{"Target gene": "CG7304 (GeneID 39713)", "reagent": 1, "Outcome": "inactive"}
{"Target gene": "CG33469 (GeneID 2768832)", "reagent": 1, "Outcome": "inactive"}
{"Target gene": "CG10845 (GeneID 42978)", "reagent": 1, "Outcome": "inactive"}
{"Target gene": "Prx3 (GeneID 42109)", "reagent": 1, "Outcome": "inactive"}
{"Target gene": "beta4GalNAcTA (GeneID 36585)", "reagent": 1, "Outcome": "inactive"}
{"Target gene": "CG42324 (GeneID 38430)", "reagent": 1, "Outcome": "inactive"}
{"Target gene": "CG42324 (GeneID 38430)", "reagent": 2, "Outcome": "inactive"}
{"Target gene": "Obp58c (GeneID 37608)", "reagent": 1, "Outcome": "inactive"}
{"Target gene": "Enoph (GeneID 40630)", "reagent": 1, "Outcome": "inactive"}
{"Target gene": "CG11085 (GeneID 32213)", "reagent": 1, "Outcome": "inactive"}
{"Target gene": "CG11085 (GeneID 32213)", "reagent": 2, "Outcome": "inactive"}
{"Target gene": "CG16879 (retired record) (GeneID 34827)", "reagent": 1, "Outcome": "inactive"}
{"Target gene": "CG16879 (retired record) (GeneID 34827)", "reagent": 2, "Outcome": "inactive"}
{"Target gene": "CG6094 (GeneID 34446)", "reagent": 1, "Outcome": "inactive"}
{"Target gene": "CG6094 (GeneID 34446)", "reagent": 2, "Outcome": "inactive"}

Laid out differently: 6 of the entries above.
Jon65Aiii (GeneID 38683): Outcome = inactive
ced-6 (GeneID 35971): Outcome = inactive
CG7304 (GeneID 39713): Outcome = inactive
CG33469 (GeneID 2768832): Outcome = inactive
CG10845 (GeneID 42978): Outcome = inactive
Prx3 (GeneID 42109): Outcome = inactive

Continued:
{"Target gene": "jb (GeneID 33032)", "reagent": 1, "Outcome": "inactive"}
{"Target gene": "CG7330 (GeneID 40007)", "reagent": 1, "Outcome": "inactive"}
{"Target gene": "CG7330 (GeneID 40007)", "reagent": 2, "Outcome": "inactive"}
{"Target gene": "Hip1 (GeneID 39450)", "reagent": 1, "Outcome": "inactive"}
{"Target gene": "CG8545 (GeneID 36365)", "reagent": 1, "Outcome": "inactive"}
{"Target gene": "CG4073 (GeneID 41284)", "reagent": 1, "Outcome": "inactive"}
{"Target gene": "SmydA-4 (GeneID 32034)", "reagent": 1, "Outcome": "inactive"}
{"Target gene": "SmydA-4 (GeneID 32034)", "reagent": 2, "Outcome": "inactive"}
{"Target gene": "Teh3 (GeneID 50170)", "reagent": 1, "Outcome": "inactive"}
{"Target gene": "CG14342 (GeneID 33310)", "reagent": 1, "Outcome": "inactive"}
{"Target gene": "GstE2 (GeneID 37107)", "reagent": 1, "Outcome": "inactive"}
{"Target gene": "CG31647 (retired record) (GeneID 318869)", "reagent": 1, "Outcome": "inactive"}
{"Target gene": "Gr93c (GeneID 117471)", "reagent": 1, "Outcome": "inactive"}
{"Target gene": "sofe (GeneID 32016)", "reagent": 1, "Outcome": "inactive"}
{"Target gene": "CG32628 (retired record) (GeneID 318129)", "reagent": 1, "Outcome": "inactive"}
{"Target gene": "Pxt (GeneID 42131)", "reagent": 1, "Outcome": "inactive"}
{"Target gene": "CG12301 (GeneID 39689)", "reagent": 1, "Outcome": "inactive"}
{"Target gene": "Abca3 (GeneID 33103)", "reagent": 1, "Outcome": "inactive"}
{"Target gene": "Creld (GeneID 33166)", "reagent": 1, "Outcome": "inactive"}
{"Target gene": "Met (GeneID 32114)", "reagent": 1, "Outcome": "inactive"}
{"Target gene": "TFAM (GeneID 42433)", "reagent": 1, "Outcome": "inactive"}
{"Target gene": "CG4716 (GeneID 36471)", "reagent": 1, "Outcome": "inactive"}
